Assay results from article PMC7615087.
These are yes or no findings as the source states them, for the method shown. Binding can be weak; no strength is given.

What was measured:
Experiment in all cases: cross-linking; same BS3 cross-linking mass spectrometry sample as a6; cross-links within CCR4-NOT and between CCR4-NOT and CNOT4 when bound to stalled 80S ribosomes; both purified
[1] = target: human CNOT1 (subunit of recombinant CCR4-NOT) (human) (UniProt A5YKK6)
[2] = target: human CNOT2 (subunit of recombinant CCR4-NOT) (human) (UniProt Q9NZN8)
[3] = target: human CNOT6 (subunit of recombinant CCR4-NOT) (human) (UniProt Q9ULM6)
[4] = target: human CNOT9 (subunit of recombinant CCR4-NOT) (human) (UniProt Q92600)

Measured: binding

human CNOT3 (subunit of recombinant CCR4-NOT) (from UniProt O75175)
binds: all assays above
